{
  "source": "patent US20120165403A1",
  "about": "“METHODS OF INHIBITING THE ACTIVITY OF HSP90 AND/OR ARYL HYDROCARBON RECEPTOR” (UNIVERSITY OF ROCHESTER, priority 2004, published 2012)",
  "test_system": "AhR",
  "test": "Sucrose density gradient sedimentation of the AhR in Hepa cytosol",
  "type": "biochemical, mouse",
  "conditions": "for gradient fractions in which the AhR sediments, 9S region: 200 μM EGCG (predominant fractions) or 10 nM TCDD",
  "data": [
    {"smiles": "O=C(O[C@@H]1Cc2c(O)cc(O)cc2O[C@@H]1c1cc(O)c(O)c(O)c1)c1cc(O)c(O)c(O)c1", "note": "[EGCG, epigallocatechin gallate]", "values": [
      {"measurement": "additional gradient fractions in which the AhR was detected", "setting": "Hepa cytosol, 200 μM EGCG, 2 h", "value": "21-23 fractions"},
      {"measurement": "gradient fractions in which the AhR sediments, 9S region", "setting": "Hepa cytosol, 2 h", "value": "13-15 fractions"},
      {"measurement": "sedimentation coefficient of the shifted AhR complex", "setting": "fractions 21-23, crude estimate relative to 14C-BSA (4.4S)", "value": "13-14 S"}
    ]},
    {"smiles": "Clc1cc2c(cc1Cl)Oc1cc(Cl)c(Cl)cc1O2", "note": "[TCDD, 2,3,7,8-tetrachlorodibenzo-p-dioxin, reference compound]", "values": [
      {"measurement": "gradient fractions in which the AhR sediments, 9S region", "setting": "Hepa cytosol, 2 h", "value": "8-16 fractions"}
    ]}
  ]
}
